We go through one molecule from ChEMBL document CHEMBL4308851, “Alkyl-guanidine Compounds as Potent Broad-Spectrum Antibacterial Agents: Chemical Library Extension and Biological Characterization” (J Med Chem, 2018).

This data set can be described thus: in vitro. Conditions: human, Caco-2.

Broadly, the Papp A→B is the apparent permeability from the apical to the basolateral side of a cell layer.

`CC(C)NCC(O)COc1cccc2ccccc12` (stereo unspecified) [PROPRANOLOL] displayed a Papp A→B at 2 h, 10 µM of 22.4 ×10⁻⁶ cm/s.
